Measurements: PMC7177637
No constants are given. Whether binding was seen depends on the method and setting. Binding seen in cells or lysates may run through a third protein. Some binding calls cover weakened binding; strength is not graded here.

Protein sequences, listed by entry. Tags and fused reporters are not part of them. Lines headed by an entry give the natural chain unless they say otherwise; changes in a name come on top. Chains listed by the source or under a name are the forms on record and can include a tag or linker.
UniProt P35222: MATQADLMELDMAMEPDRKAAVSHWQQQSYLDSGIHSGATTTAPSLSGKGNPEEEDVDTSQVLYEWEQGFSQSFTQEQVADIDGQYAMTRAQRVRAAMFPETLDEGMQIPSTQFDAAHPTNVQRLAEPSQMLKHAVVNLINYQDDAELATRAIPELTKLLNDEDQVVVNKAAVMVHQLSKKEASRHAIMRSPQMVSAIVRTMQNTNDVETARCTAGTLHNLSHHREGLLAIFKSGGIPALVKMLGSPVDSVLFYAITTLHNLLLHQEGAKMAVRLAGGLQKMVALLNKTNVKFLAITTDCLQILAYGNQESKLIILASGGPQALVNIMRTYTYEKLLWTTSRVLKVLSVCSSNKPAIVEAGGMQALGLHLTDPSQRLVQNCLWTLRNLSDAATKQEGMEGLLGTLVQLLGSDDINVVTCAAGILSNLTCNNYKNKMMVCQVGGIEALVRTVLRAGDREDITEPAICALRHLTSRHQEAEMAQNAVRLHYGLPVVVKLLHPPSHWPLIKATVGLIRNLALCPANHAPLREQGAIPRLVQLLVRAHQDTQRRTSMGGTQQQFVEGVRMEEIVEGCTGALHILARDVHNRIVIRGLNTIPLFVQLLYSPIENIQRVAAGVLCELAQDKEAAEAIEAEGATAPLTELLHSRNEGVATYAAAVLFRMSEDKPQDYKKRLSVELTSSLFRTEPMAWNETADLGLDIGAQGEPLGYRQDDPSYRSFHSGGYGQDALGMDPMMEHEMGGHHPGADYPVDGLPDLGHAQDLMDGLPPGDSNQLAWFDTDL
PTPRG D1028A (substrate trapping form expressed in K562 cells) (P23470, form named): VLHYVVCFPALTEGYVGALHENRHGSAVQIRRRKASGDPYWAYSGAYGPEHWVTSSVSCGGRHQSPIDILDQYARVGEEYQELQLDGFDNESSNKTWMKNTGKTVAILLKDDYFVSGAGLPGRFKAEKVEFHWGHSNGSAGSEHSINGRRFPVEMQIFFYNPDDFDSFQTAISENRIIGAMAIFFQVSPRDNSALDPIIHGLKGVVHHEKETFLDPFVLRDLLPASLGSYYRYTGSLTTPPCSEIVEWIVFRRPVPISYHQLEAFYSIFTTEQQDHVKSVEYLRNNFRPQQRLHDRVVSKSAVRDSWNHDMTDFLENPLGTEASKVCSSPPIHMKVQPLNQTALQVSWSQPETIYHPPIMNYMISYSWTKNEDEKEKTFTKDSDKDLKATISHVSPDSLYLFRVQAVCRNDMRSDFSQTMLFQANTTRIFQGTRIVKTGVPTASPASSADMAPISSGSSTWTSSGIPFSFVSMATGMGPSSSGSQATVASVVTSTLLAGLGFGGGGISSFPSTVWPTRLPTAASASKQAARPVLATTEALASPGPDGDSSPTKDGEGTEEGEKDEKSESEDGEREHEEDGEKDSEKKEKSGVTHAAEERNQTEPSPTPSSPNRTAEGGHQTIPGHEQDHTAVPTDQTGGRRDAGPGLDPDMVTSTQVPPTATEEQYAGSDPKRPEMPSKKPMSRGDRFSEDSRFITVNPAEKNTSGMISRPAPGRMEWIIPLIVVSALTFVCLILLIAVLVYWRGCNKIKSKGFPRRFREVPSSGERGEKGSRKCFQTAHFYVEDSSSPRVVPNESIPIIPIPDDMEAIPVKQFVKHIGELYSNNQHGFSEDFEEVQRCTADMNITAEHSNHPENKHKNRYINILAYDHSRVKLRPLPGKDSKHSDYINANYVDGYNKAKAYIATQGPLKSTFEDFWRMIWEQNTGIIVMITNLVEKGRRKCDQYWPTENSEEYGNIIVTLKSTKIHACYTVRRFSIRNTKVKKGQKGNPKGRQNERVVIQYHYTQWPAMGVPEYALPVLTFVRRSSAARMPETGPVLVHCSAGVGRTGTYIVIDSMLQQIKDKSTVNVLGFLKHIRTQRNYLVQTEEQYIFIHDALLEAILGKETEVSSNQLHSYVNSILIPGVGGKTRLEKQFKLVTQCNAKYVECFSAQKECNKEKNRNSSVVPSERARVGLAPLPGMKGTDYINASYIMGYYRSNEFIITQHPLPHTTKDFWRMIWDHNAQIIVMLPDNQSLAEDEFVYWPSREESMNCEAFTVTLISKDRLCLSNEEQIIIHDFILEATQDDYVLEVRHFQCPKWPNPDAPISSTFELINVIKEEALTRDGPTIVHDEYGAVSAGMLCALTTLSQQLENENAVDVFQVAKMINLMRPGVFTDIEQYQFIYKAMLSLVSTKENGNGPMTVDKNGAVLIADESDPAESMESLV
UniProt O15169: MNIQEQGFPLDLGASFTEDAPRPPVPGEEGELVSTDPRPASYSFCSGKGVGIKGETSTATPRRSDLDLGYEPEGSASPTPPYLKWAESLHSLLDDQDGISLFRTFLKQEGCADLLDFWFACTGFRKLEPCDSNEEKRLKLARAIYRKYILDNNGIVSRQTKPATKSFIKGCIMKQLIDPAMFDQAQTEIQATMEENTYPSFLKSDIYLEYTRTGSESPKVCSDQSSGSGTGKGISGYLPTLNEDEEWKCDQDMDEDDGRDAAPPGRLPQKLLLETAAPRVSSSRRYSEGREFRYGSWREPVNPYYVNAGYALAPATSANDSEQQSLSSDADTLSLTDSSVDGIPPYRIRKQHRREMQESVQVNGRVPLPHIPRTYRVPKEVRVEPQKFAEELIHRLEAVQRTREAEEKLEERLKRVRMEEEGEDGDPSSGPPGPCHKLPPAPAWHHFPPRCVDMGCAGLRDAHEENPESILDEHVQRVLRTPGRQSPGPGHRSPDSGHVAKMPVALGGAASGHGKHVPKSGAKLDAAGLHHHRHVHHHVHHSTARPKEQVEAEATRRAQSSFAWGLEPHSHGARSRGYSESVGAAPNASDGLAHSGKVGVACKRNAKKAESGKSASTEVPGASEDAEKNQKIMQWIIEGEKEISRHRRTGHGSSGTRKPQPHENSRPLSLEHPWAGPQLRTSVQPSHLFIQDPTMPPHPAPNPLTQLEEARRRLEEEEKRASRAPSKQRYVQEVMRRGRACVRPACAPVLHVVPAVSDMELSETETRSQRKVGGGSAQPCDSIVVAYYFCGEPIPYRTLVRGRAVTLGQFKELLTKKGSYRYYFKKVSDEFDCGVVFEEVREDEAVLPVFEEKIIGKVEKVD

Columns and labels:
[1] = target: β-catenin (CTNNB1) (human (endogenous in K562 and U937)) (UniProt P35222); test: co-IP; K562 cells without PTPRG; immunoprecipitation with anti-β-catenin on Protein G-Sepharose, Western blot with anti-Axin1
[2] = target: β-catenin (CTNNB1) (human (endogenous in K562 and U937)) (UniProt P35222); test: co-IP; PTPRG-positive K562 cells (K562 γ1); immunoprecipitation with anti-β-catenin on Protein G-Sepharose, Western blot with anti-Axin1
[3] = target: PTPRG D1028A (substrate trapping form expressed in K562 cells) (human) (UniProt P23470); test: co-IP; K562 cells expressing PTPRG D1028A; antibody on Protein G-Sepharose, 500 µg lysate, 3 h at 4 °C; rabbit IgG as negative control; Western blot

Row | Substance | binding [1] | binding [2] | binding [3]
1 | Axin1 (from UniProt O15169 1-862) | no binding (condition: K562 cells without PTPRG) | binds | 
2 | β-catenin (CTNNB1) (from UniProt P35222 1-781) |  |  | binds
